Data: PubChem BioAssay AID1259415 (National Center for Advancing Translational Sciences (NCATS), 2018)
Where “and” joins values, the source holds several entries; their conditions need not be identical. Identical values can stand only once. In all, about 410,000 compounds went through this assay and about 18,000 (4.4%) were called active. The inconclusive results got no clear call from the source; some entries with a clear call stand among them for comparison. Cut-off read from the data, not from the text of the source: active = activity change below about -60%; inconclusive = no clear call, values can overlap the other calls; inactive = above about -39%.

Test: qHTS Assay for inhibitors of the human cytomegalovirus (HCMV)
Conditions: HFF cells, HCMV-luciferase reporter, 72 h; at 57.5 µM; stronger effect = lower value
In short: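 Steps: HFFs plated, 16 h 37C; compounds added; HCMV-luciferase added to MOI 1 PFU/cell; 72 h 37C; OneGlo reagent, 5 min room temperature; luminescence read, normalized to controls.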
% is set by controls: 0 for no effect and ±100 for the full control effect.

Row | SMILES | activity change, negative = inhibition
1 | CC(C)c1cccc(-c2csc(C(C)(O)c3ccc(F)c(F)c3)n2)c1 (centres undefined) | active: -77.4%
2 | Cc1cccc(NC(=S)N=Nc2c(O)n(CN3CCOCC3)c3ccccc23)c1C | active: -77.2%
3 | CCOc1ncccc1C(=O)N1CCCSC1=Nc1ccccc1OC | inactive: 9.98%
4 | CCOC(=O)c1csc(N)c1-c1ccc([N+](=O)[O-])cc1 | active: -71.5%
5 | COCC(=O)OC1CCn2c1nc1c2C(=O)C(C)=C(NC(C)=O)C1=O (centres undefined) | active: -79.2%
6 | O=C(NCCC1=CCCCC1)c1c(O)nc2ccccn2c1=O | inconclusive: -46.2%
7 | Cc1cc(C)cc(-n2c(SCC(=O)Nc3cccc(S(=O)(=O)NC4=NCCCCC4)c3)nc3ccccc3c2=O)c1 | inconclusive: -51.9%
8 | Nc1ccc(-c2cc(-c3cccc(N)c3)nc(-c3ccccc3)n2)cc1 | inconclusive: -42.9%
9 | COc1ccc(OC)c(C2N=C(N)Nc3nc4ccccc4n32)c1 (centres undefined) | inactive: 13.2%
10 | Nn1cnnc1N/N=C/c1ccc(Cl)cc1Cl | inconclusive: -41.1%
11 | COC(=O)c1cc(S(=O)(=O)NCC2CCN(Cc3cccc(F)c3)CC2)c[nH]1 | inactive: -0.177% and inactive: -37.1%
12 | O=C(COC(=O)c1ccccc1)NCCCCc1ccccc1 | inactive: -11.3%
13 | CCc1cc2c(cc3c(=O)n(CC(=O)NCCc4ccc(OC)c(OC)c4)ncn32)s1 | inconclusive: -46.8%
14 | CC(C)(C)c1ccc(C(=O)N2CCC2(C)C(=O)Nc2ccc3[nH]ncc3c2)cc1 (centres undefined) | inconclusive: -51.8%
15 | Cc1cc(C(=O)COC(=O)c2ccc(O)cc2)c(C)n1CC1COc2ccccc2O1 (centres undefined) | inconclusive: -58.8%
16 | CCCN(CCC)S(=O)(=O)c1ccc(C(=O)NCc2ccc3c(c2)OCO3)cc1 | inconclusive: -41.3%
17 | N#CC(C#N)=NNc1ccc(-n2ccc(C(F)(F)F)n2)cc1 | active: -96.6%
18 | COc1ccc(-c2cc(=O)oc3c(C)c(O)c(CN(C)C)cc23)cc1 | inconclusive: -46.3%
19 | COc1ccc(-c2noc(-c3cccnc3NCc3ccco3)n2)cc1 | inactive: 98.1%
20 | COc1ccc(-c2ccc(C(=O)N3CCN(C)CC3)c3occc23)c(C)c1 | inconclusive: -45.8%
21 | COc1cc(CC(=O)OCC(=O)N2CCCCC2)cc(OC)c1OC | inconclusive: -40.8%
22 | COc1ccc(C2=NN(c3ccccc3)C(c3ccc(OC)c(OC)c3)C2)cc1 (centres undefined) | inactive: -0.814%

Row | SMILES | activity change, negative = inhibition
23 | O=C1C2CC=CCC2C(=O)N1c1ccc(OCC(O)Cn2nnc3ccccc32)cc1 (centres undefined) | inconclusive: -53.8%
24 | CC1(C(=O)NCc2ccccc2Br)CCN1C(=O)CCc1ccc(Cl)cc1Cl (centres undefined) | inconclusive: -41.3%
25 | O=[N+]([O-])c1cccc(CNc2ccc3c(c2)CCC3)c1 | inconclusive: -45.4%
26 | CC(=O)Nc1cc(C(=O)NCc2ccc(C)cc2)ccc1Sc1ccc(C)cc1 | inactive: -12.3%
27 | O=C1c2ccccc2C(Nc2ccc(Cl)cn2)N1c1ccccn1 (centres undefined) | inconclusive: -52.6%
28 | O=C(CC(c1ccccc1)c1ccccc1)Nc1ncn[nH]1 | inconclusive: -40.2%
29 | Cc1ccc(Cl)cc1N1CCN(C(=S)NCc2ccco2)CC1 | inconclusive: -44.2%
30 | Cc1ccc(C(=O)c2cc(Br)ccc2N)cc1 | inactive: -26.4%
31 | Cc1ccc([N+](=O)[O-])cc1NC(=O)c1ccccc1 | inconclusive: -54.1%
32 | COc1ccc(-c2cccc(NS(=O)(=O)c3cc(C)c(OC)c(C)c3C)c2)nn1 | inconclusive: -49.5%
33 | Cc1cccc(OCC(=O)N2CCN(C(=O)c3ccc([N+](=O)[O-])cc3)CC2)c1 | active: -60.9%
34 | Cc1cc(NC(=O)c2ccccc2-c2ccccc2C(=O)O)no1 | inconclusive: -42.2%
35 | O=C(NCCc1ccc(Cl)cc1)c1cnccn1 | inactive: -28.2%
36 | Cc1ccc(NC(=O)C2CCCN2S(=O)(=O)c2ccc3c(c2)CCCC(=O)N3)cc1C (centres undefined) | inactive: -24.8%
37 | Cc1ccc(NC(=O)COc2ccc(N(C)C(=O)C(C)(C)C)cc2)cc1S(=O)(=O)N1CCCCC1 | inconclusive: -55.8%
38 | CC1(c2nnc(-c3ccncc3)o2)CC(c2ccccc2)=NO1 (centres undefined) | inconclusive: -54.6%
39 | O=C(Cc1ccccc1F)Nc1cc(Cl)ccc1N1CCCC1 | inconclusive: -52.2%
40 | COc1ccc(NC(=O)C(c2ccc(C)cc2)N(C)C(=O)Cc2cccs2)cc1 (centres undefined) | inconclusive: -59.6%
41 | COC(=O)c1ccc(CN2CCN(CCC(C)C)C(CCO)C2)cc1 (centres undefined) | inconclusive: -58.4%
42 | COc1ccc(-c2cc(C(F)F)n3ncc(C(=O)N4CCN5CCCC5C4)c3n2)cc1 (centres undefined) | inactive: 2.3%
43 | O=C1CC(N2CCC(c3nc4ccccc4[nH]3)CC2)C(=O)N1c1cccc(F)c1 (centres undefined) | inactive: -9.62%
44 | Cc1cc(C)c2nc(Nc3nc(CSc4nc5ccccc5[nH]4)cc(=O)[nH]3)nc(C)c2c1 | active: -65%
